PubChem BioAssay AID493246 – Drosophila RNAi Screening Center, 2011

Screen: 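Genome-wide search for dsRNAs that reduce cell number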 (primary screen)
Cells: Drosophila Kc and S2R+ cells
Reagent: long dsRNA against Drosophila genes
Measured: 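Cell number per well after knock-down, printed as raw plate values; calls were based on per-plate z-scores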
Reading the numbers: Kc cell number and S2R+ cell number: higher = more cells remaining
Active means: 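Counted as a hit if cell number falls by a z-score of at least 3 within its plate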
The deposit covers about 21,000 reagents; below is an unselected part of those with a known target gene and a result. Of all reagents, 429 (2%) got an active call. 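Values are raw and not normalised between plates; calls rest on per-plate z-scores that were not deposited.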 A plus sign joins genes that one reagent is predicted to hit. Not given: the amount of reagent, the time to read-out.

Chpf (GeneID 32259) [DRSC19491] showed Kc cell number, rep 1 = 1.63e6; Kc cell number, rep 2 = 1.57e6; S2R+ cell number, rep 1 = 1.12e6; S2R+ cell number, rep 2 = 1.17e6; inactive. Against Chpf (GeneID 32259) [DRSC19893], the values are Kc cell number, rep 1 = 6.16e5; S2R+ cell number, rep 1 = 8.69e5; inactive. CG32582 (retired record) (GeneID 318099) [DRSC19114] showed Kc cell number, rep 1 = 1.34e6; Kc cell number, rep 2 = 1.65e6; S2R+ cell number, rep 1 = 1.05e6; S2R+ cell number, rep 2 = 1.21e6; inactive. After knock-down of iotaTry (GeneID 36223) [DRSC07634], the screen gave Kc cell number, rep 1 = 1.50e6; Kc cell number, rep 2 = 1.47e6; S2R+ cell number, rep 1 = 1.25e6; S2R+ cell number, rep 2 = 1.27e6; inactive. Silencing of Snap24 (GeneID 41193) [DRSC16864] resulted in: Kc cell number, rep 1 = 1.68e6; Kc cell number, rep 2 = 1.83e6; S2R+ cell number, rep 1 = 1.38e6; S2R+ cell number, rep 2 = 1.49e6; inactive. Against side-IV (GeneID 41657) [DRSC14833] the deposit lists Kc cell number, rep 1 = 1.35e6; Kc cell number, rep 2 = 1.38e6; S2R+ cell number, rep 1 = 1.09e6; S2R+ cell number, rep 2 = 1.16e6; inactive.

Against CenG1A (GeneID 34803) [DRSC02538] the deposit lists Kc cell number, rep 1 = 1.57e6; Kc cell number, rep 2 = 1.59e6; S2R+ cell number, rep 1 = 1.21e6; S2R+ cell number, rep 2 = 1.35e6; inactive. For CenG1A (GeneID 34803) [DRSC03505] the deposit lists Kc cell number, rep 1 = 1.51e6; Kc cell number, rep 2 = 1.57e6; S2R+ cell number, rep 1 = 1.23e6; S2R+ cell number, rep 2 = 1.36e6; inactive. CenG1A (GeneID 34803) [DRSC03506] showed Kc cell number, rep 1 = 1.48e6; Kc cell number, rep 2 = 1.54e6; S2R+ cell number, rep 1 = 1.22e6; S2R+ cell number, rep 2 = 1.42e6; inactive. Hmg-2 (GeneID 37407) [DRSC04554] showed Kc cell number, rep 1 = 1.26e6; Kc cell number, rep 2 = 1.36e6; S2R+ cell number, rep 1 = 1.03e6; S2R+ cell number, rep 2 = 1.10e6; inactive. Pdzd8 (GeneID 32157) [DRSC19355] gave Kc cell number, rep 1 = 1.51e6; Kc cell number, rep 2 = 1.52e6; S2R+ cell number, rep 1 = 8.93e5; S2R+ cell number, rep 2 = 9.62e5; inactive. With knock-down of sip1 (GeneID 44238) [DRSC03609], the record shows Kc cell number, rep 1 = 1.49e6; Kc cell number, rep 2 = 1.34e6; S2R+ cell number, rep 1 = 1.06e6; S2R+ cell number, rep 2 = 1.14e6; inactive.

Laid out differently: 3 of the entries above.
Gene	DRSC id	Kc cell number, rep 1	Kc cell number, rep 2	S2R+ cell number, rep 1	S2R+ cell number, rep 2	activity call
Hmg-2 (GeneID 37407)	DRSC04554	1.26e6	1.36e6	1.03e6	1.10e6	inactive
Pdzd8 (GeneID 32157)	DRSC19355	1.51e6	1.52e6	8.93e5	9.62e5	inactive
sip1 (GeneID 44238)	DRSC03609	1.49e6	1.34e6	1.06e6	1.14e6	inactive

Further records follow:
Against sals (GeneID 41377) [DRSC14925], the entry reads Kc cell number, rep 1 = 1.48e6; Kc cell number, rep 2 = 1.53e6; S2R+ cell number, rep 1 = 1.24e6; S2R+ cell number, rep 2 = 1.25e6; inactive. Silencing of sals (GeneID 41377) [DRSC16113] gave: Kc cell number, rep 1 = 1.45e6; Kc cell number, rep 2 = 1.43e6; S2R+ cell number, rep 1 = 1.21e6; S2R+ cell number, rep 2 = 1.24e6; inactive. For Orco (GeneID 40650) [DRSC12358], the entry reads Kc cell number, rep 1 = 1.67e6; Kc cell number, rep 2 = 1.88e6; S2R+ cell number, rep 1 = 1.20e6; S2R+ cell number, rep 2 = 1.35e6; inactive. Ldsdh1 (GeneID 31726) [DRSC18219] gave Kc cell number, rep 1 = 1.61e6; Kc cell number, rep 2 = 1.67e6; S2R+ cell number, rep 1 = 1.02e6; S2R+ cell number, rep 2 = 1.15e6; inactive. Against CG42809 + CG42810 [DRSC02532] the deposit lists Kc cell number, rep 1 = 1.55e6; Kc cell number, rep 2 = 1.71e6; S2R+ cell number, rep 1 = 1.19e6; S2R+ cell number, rep 2 = 1.30e6; inactive. With knock-down of CG42809 + CG42810 [DRSC02533] the results were Kc cell number, rep 1 = 1.50e6; Kc cell number, rep 2 = 1.59e6; S2R+ cell number, rep 1 = 1.17e6; S2R+ cell number, rep 2 = 1.24e6; inactive.

For CG4660 (GeneID 31542) [DRSC18378], the values are Kc cell number, rep 1 = 1.53e6; Kc cell number, rep 2 = 1.52e6; S2R+ cell number, rep 1 = 1.10e6; S2R+ cell number, rep 2 = 1.20e6; inactive. Depletion of Vps20 (GeneID 37581) [DRSC04448] gave: Kc cell number, rep 1 = 1.57e6; Kc cell number, rep 2 = 1.61e6; S2R+ cell number, rep 1 = 1.30e6; S2R+ cell number, rep 2 = 1.41e6; inactive. Depletion of E(var)3-9 (GeneID 41073) [DRSC14451] resulted in: Kc cell number, rep 1 = 1.54e6; Kc cell number, rep 2 = 1.64e6; S2R+ cell number, rep 1 = 1.29e6; S2R+ cell number, rep 2 = 1.40e6; inactive.
